{"source": "PubChem BioAssay AID652272 (Drosophila RNAi Screening Center, 2013)", "assay": "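Genes whose knock-down decreases or increases Hedgehog reporter output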 (primary screen)", "cell system": "Drosophila clone 8 (Cl8) cells", "reagent": "long dsRNA against Drosophila genes", "measured": "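Firefly light from a Hedgehog-responsive ptc promoter reporter and Renilla reference light, both read on a plate reader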", "reading the numbers": "firefly Hh reporter signal: higher = more ptc reporter light; Renilla reference signal: higher = more Renilla control light", "hit rule": "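Called a hit if the two-replicate mean z-score lies below -2 or above +3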", "calls": "active = hit: reporter lowered or raised; inactive = not a hit", "note": "The screen tested about 21,000 reagents; below is a random part of those that have a named target and a result. Of all reagents, 503 (2.4%) got an active call. 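Raw plate light values, not normalised; calls rest on replicate z-scores that were not deposited; hits include reporter decreases as well as increases.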 Unmarked entries are inactive. Not stated in the record: the amount of reagent, the time to read-out."}
{"gene":"RpL32 (GeneID 43573)","dsRNA":"DRSC16835","firefly Hh reporter signal, replicate 1":"30695 (active)","firefly Hh reporter signal, replicate 2":2.59e5,"firefly Hh reporter signal, replicate 3":23971,"Renilla reference signal, replicate 1":2320,"Renilla reference signal, replicate 2":1539}
{"gene":"CAH6 (GeneID 43701)","dsRNA":"DRSC15505","firefly Hh reporter signal, replicate 1":1.28e5,"firefly Hh reporter signal, replicate 2":85237,"Renilla reference signal, replicate 1":4576,"Renilla reference signal, replicate 2":2497}
{"gene":"PGRP-LE (GeneID 32534)","dsRNA":"DRSC20137","firefly Hh reporter signal, replicate 1":1.10e5,"firefly Hh reporter signal, replicate 2":1.02e5,"Renilla reference signal, replicate 1":2573,"Renilla reference signal, replicate 2":2508}
{"gene":"CG4820 (GeneID 41344)","dsRNA":"DRSC15654","firefly Hh reporter signal, replicate 1":70857,"firefly Hh reporter signal, replicate 2":1.28e5,"Renilla reference signal, replicate 1":2432,"Renilla reference signal, replicate 2":3581}
{"gene":"CG11655 (GeneID 32472)","dsRNA":"DRSC19413","firefly Hh reporter signal, replicate 1":68889,"firefly Hh reporter signal, replicate 2":1.94e5,"Renilla reference signal, replicate 1":2005,"Renilla reference signal, replicate 2":7648}
{"gene":"Ldaf1 (GeneID 326240)","dsRNA":"DRSC17963","firefly Hh reporter signal, replicate 1":1.53e5,"firefly Hh reporter signal, replicate 2":1.03e5,"Renilla reference signal, replicate 1":3712,"Renilla reference signal, replicate 2":3989}
{"gene":"Uch (GeneID 33397)","dsRNA":"DRSC00797","firefly Hh reporter signal, replicate 1":1.58e5,"firefly Hh reporter signal, replicate 2":93175,"Renilla reference signal, replicate 1":5722,"Renilla reference signal, replicate 2":3626}
{"gene":"geminin (GeneID 35563)","dsRNA":"DRSC04984","firefly Hh reporter signal, replicate 1":42762,"firefly Hh reporter signal, replicate 2":24211,"Renilla reference signal, replicate 1":1340,"Renilla reference signal, replicate 2":2717}
{"gene":"Plc21C (GeneID 33204)","dsRNA":"DRSC00773","firefly Hh reporter signal, replicate 1":91536,"firefly Hh reporter signal, replicate 2":69078,"Renilla reference signal, replicate 1":3901,"Renilla reference signal, replicate 2":3120}
{"gene":"CG43117 (GeneID 12798272)","dsRNA":"DRSC13767","firefly Hh reporter signal, replicate 1":47001,"firefly Hh reporter signal, replicate 2":1.71e5,"Renilla reference signal, replicate 1":12285,"Renilla reference signal, replicate 2":3712}
{"gene":"CG12224 (GeneID 41453)","dsRNA":"DRSC14480","firefly Hh reporter signal, replicate 1":1.16e5,"firefly Hh reporter signal, replicate 2":88693,"Renilla reference signal, replicate 1":4616,"Renilla reference signal, replicate 2":1778}
{"gene":"Vsx1 (GeneID 31470)","dsRNA":"DRSC18349","firefly Hh reporter signal, replicate 1":"1.87e5 (active)","firefly Hh reporter signal, replicate 2":1.34e5,"firefly Hh reporter signal, replicate 3":2.81e5,"Renilla reference signal, replicate 1":1634,"Renilla reference signal, replicate 2":5128}
{"gene":"Vsx1 (GeneID 31470)","dsRNA":"DRSC18350","firefly Hh reporter signal, replicate 1":72140,"firefly Hh reporter signal, replicate 2":73949,"Renilla reference signal, replicate 1":2720,"Renilla reference signal, replicate 2":3490}

2 neighbouring reagents from above, quoted:
{"gene":"CAH6 (GeneID 43701)","dsRNA":"DRSC15505","firefly Hh reporter signal, replicate 1":1.28e5,"firefly Hh reporter signal, replicate 2":85237,"Renilla reference signal, replicate 1":4576,"Renilla reference signal, replicate 2":2497}
{"gene":"PGRP-LE (GeneID 32534)","dsRNA":"DRSC20137","firefly Hh reporter signal, replicate 1":1.10e5,"firefly Hh reporter signal, replicate 2":1.02e5,"Renilla reference signal, replicate 1":2573,"Renilla reference signal, replicate 2":2508}

Continued.
{"gene":"Prosbeta2 (GeneID 39628)","dsRNA":"DRSC11257","firefly Hh reporter signal, replicate 1":"51187 (active)","firefly Hh reporter signal, replicate 2":81431,"Renilla reference signal, replicate 1":3921,"Renilla reference signal, replicate 2":4193}
{"gene":"nebu (GeneID 39458)","dsRNA":"DRSC09807","firefly Hh reporter signal, replicate 1":1.01e5,"firefly Hh reporter signal, replicate 2":1.18e5,"Renilla reference signal, replicate 1":3896,"Renilla reference signal, replicate 2":4535}
{"gene":"nebu (GeneID 39458)","dsRNA":"DRSC09808","firefly Hh reporter signal, replicate 1":59411,"firefly Hh reporter signal, replicate 2":44937,"firefly Hh reporter signal, replicate 3":58828,"Renilla reference signal, replicate 1":5015,"Renilla reference signal, replicate 2":5136}
{"gene":"Gasz (GeneID 35795)","dsRNA":"DRSC06829","firefly Hh reporter signal, replicate 1":64082,"firefly Hh reporter signal, replicate 2":63383,"Renilla reference signal, replicate 1":3104,"Renilla reference signal, replicate 2":2777}
{"gene":"CG31161 (GeneID 326123)","dsRNA":"DRSC16144","firefly Hh reporter signal, replicate 1":5.02e5,"firefly Hh reporter signal, replicate 2":95440,"Renilla reference signal, replicate 1":26466,"Renilla reference signal, replicate 2":3211}
{"gene":"Pal2 (GeneID 37746)","dsRNA":"DRSC04507","firefly Hh reporter signal, replicate 1":70461,"firefly Hh reporter signal, replicate 2":62480,"Renilla reference signal, replicate 1":1802,"Renilla reference signal, replicate 2":6033}
{"gene":"mEFTs (GeneID 35060)","dsRNA":"DRSC02953","firefly Hh reporter signal, replicate 1":46068,"firefly Hh reporter signal, replicate 2":1.04e5,"Renilla reference signal, replicate 1":2176,"Renilla reference signal, replicate 2":3524}
{"gene":"CG5466 (GeneID 42444)","dsRNA":"DRSC15808","firefly Hh reporter signal, replicate 1":2.28e5,"firefly Hh reporter signal, replicate 2":12980,"Renilla reference signal, replicate 1":14419,"Renilla reference signal, replicate 2":529}
